{"source": "PubChem BioAssay AID686938 | Drosophila RNAi Screening Center, 2013", "assay": "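Fly genes required for calcium entry once internal stores are emptied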 (primary screen)", "cell system": "Drosophila S2R+ cells", "reagent": "long dsRNA against Drosophila genes, about 0.25 µg dsRNA per well, roughly 10,000 cells", "duration": "5 days of knock-down before the calcium assay", "challenge": "thapsigargin (SERCA pump blocker) to empty calcium stores; entry signal taken 4 min after adding it", "read-out": "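Duplicate raw fluo-4 intensities per well from a plate reader, at rest and four minutes after thapsigargin emptied calcium stores; entry-to-rest ratio filled for only some wells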", "reading the numbers": "calcium entry signal: higher = stronger calcium signal after store depletion; entry to resting ratio: higher = more calcium entry relative to resting level; resting calcium signal: higher = higher resting calcium signal", "units": "calcium entry signal in fluorescence units; resting calcium signal in fluorescence units", "rule for the call": "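Called when the plate z-score of the entry-to-rest ratio, mean of duplicates, falls below −3; wells with low overall dye signal (Fmax z below −2) or more than five off-targets excluded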", "calls": "active = strongly reduced calcium entry; inactive = no strong reduction", "note": "The screen tested about 23,000 reagents; this is an unselected part of those that have a named target and a result. Over the whole deposit, 75 (0.33%) got an active call. 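Raw plate signals without normalisation; calls rest on plate z-scores that were not deposited; ratio present for only 364 wells.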 Names joined by + are all predicted targets of the reagent. No sequences are given here. Not given: the dose of the treatment."}
{"gene":"CG33310","DRSC id":"DRSC01897","calcium entry signal, replicate 1":3.54e7,"calcium entry signal, replicate 2":2.30e7,"resting calcium signal, replicate 1":1.70e7,"resting calcium signal, replicate 2":1.14e7,"call":"inactive"}
{"gene":"Dbp73D","DRSC id":"DRSC11142","calcium entry signal, replicate 1":1.75e7,"calcium entry signal, replicate 2":2.29e7,"resting calcium signal, replicate 1":9.68e6,"resting calcium signal, replicate 2":1.73e7,"call":"inactive"}
{"gene":"Ssadh","DRSC id":"DRSC15621","calcium entry signal, replicate 1":3.26e7,"calcium entry signal, replicate 2":3.84e7,"resting calcium signal, replicate 1":1.52e7,"resting calcium signal, replicate 2":1.97e7,"call":"inactive"}
{"gene":"Spn47C","DRSC id":"DRSC07030","calcium entry signal, replicate 1":2.56e7,"calcium entry signal, replicate 2":2.75e7,"resting calcium signal, replicate 1":1.20e7,"resting calcium signal, replicate 2":1.32e7,"call":"inactive"}
{"gene":"Pig1","DRSC id":"DRSC18698","calcium entry signal, replicate 1":3.45e7,"calcium entry signal, replicate 2":5.52e7,"entry to resting ratio":2,"resting calcium signal, replicate 1":1.72e7,"resting calcium signal, replicate 2":2.65e7,"call":"inactive"}
{"gene":"CG33964 + CG13175","DRSC id":"DRSC06300","calcium entry signal, replicate 1":2.64e7,"calcium entry signal, replicate 2":3.19e7,"resting calcium signal, replicate 1":1.35e7,"resting calcium signal, replicate 2":1.39e7,"call":"inactive"}
{"gene":"CG33964 + CG13175","DRSC id":"DRSC06301","calcium entry signal, replicate 1":2.29e7,"calcium entry signal, replicate 2":3.12e7,"resting calcium signal, replicate 1":1.28e7,"resting calcium signal, replicate 2":1.38e7,"call":"inactive"}
{"gene":"CG33964 + CG13175","DRSC id":"DRSC07184","calcium entry signal, replicate 1":2.19e7,"calcium entry signal, replicate 2":3.03e7,"resting calcium signal, replicate 1":1.12e7,"resting calcium signal, replicate 2":1.37e7,"call":"inactive"}
{"gene":"sl","DRSC id":"DRSC20377","calcium entry signal, replicate 1":4.20e7,"calcium entry signal, replicate 2":4.21e7,"resting calcium signal, replicate 1":1.74e7,"resting calcium signal, replicate 2":2.17e7,"call":"inactive"}
{"gene":"sl","DRSC id":"DRSC21782","calcium entry signal, replicate 1":4.59e7,"calcium entry signal, replicate 2":4.54e7,"resting calcium signal, replicate 1":2.69e7,"resting calcium signal, replicate 2":2.16e7,"call":"inactive"}
{"gene":"mldr","DRSC id":"DRSC18100","calcium entry signal, replicate 1":2.57e7,"calcium entry signal, replicate 2":3.94e7,"resting calcium signal, replicate 1":1.33e7,"resting calcium signal, replicate 2":1.83e7,"call":"inactive"}
{"gene":"senju","DRSC id":"DRSC02366","calcium entry signal, replicate 1":3.63e7,"calcium entry signal, replicate 2":3.98e7,"resting calcium signal, replicate 1":1.79e7,"resting calcium signal, replicate 2":1.87e7,"call":"inactive"}
{"gene":"GstE1","DRSC id":"DRSC07437","calcium entry signal, replicate 1":3.90e7,"calcium entry signal, replicate 2":5.51e7,"resting calcium signal, replicate 1":1.80e7,"resting calcium signal, replicate 2":2.74e7,"call":"inactive"}
{"gene":"wupA","DRSC id":"DRSC20385","calcium entry signal, replicate 1":3.88e7,"calcium entry signal, replicate 2":3.91e7,"resting calcium signal, replicate 1":1.92e7,"resting calcium signal, replicate 2":1.79e7,"call":"inactive"}
{"gene":"wupA","DRSC id":"DRSC22547","calcium entry signal, replicate 1":2.83e7,"calcium entry signal, replicate 2":2.96e7,"resting calcium signal, replicate 1":1.40e7,"resting calcium signal, replicate 2":1.29e7,"call":"inactive"}
{"gene":"CG2685","DRSC id":"DRSC18463","calcium entry signal, replicate 1":3.25e7,"calcium entry signal, replicate 2":4.21e7,"entry to resting ratio":2,"resting calcium signal, replicate 1":1.61e7,"resting calcium signal, replicate 2":1.87e7,"call":"inactive"}
{"gene":"Hs2st","DRSC id":"DRSC03348","calcium entry signal, replicate 1":4.22e7,"resting calcium signal, replicate 1":2.24e7,"call":"inactive"}
{"gene":"Vps25","DRSC id":"DRSC06486","calcium entry signal, replicate 1":4.11e7,"calcium entry signal, replicate 2":4.15e7,"resting calcium signal, replicate 1":2.04e7,"resting calcium signal, replicate 2":1.65e7,"call":"inactive"}
{"gene":"Mgtor","DRSC id":"DRSC05958","calcium entry signal, replicate 1":3.30e7,"calcium entry signal, replicate 2":3.18e7,"resting calcium signal, replicate 1":1.34e7,"resting calcium signal, replicate 2":1.21e7,"call":"inactive"}
{"gene":"sotv + CG10731","DRSC id":"DRSC05930","calcium entry signal, replicate 1":4.73e7,"calcium entry signal, replicate 2":4.14e7,"resting calcium signal, replicate 1":2.02e7,"resting calcium signal, replicate 2":2.02e7,"call":"inactive"}
{"gene":"sotv + CG10731","DRSC id":"DRSC05997","calcium entry signal, replicate 1":5.16e7,"calcium entry signal, replicate 2":4.21e7,"resting calcium signal, replicate 1":2.26e7,"resting calcium signal, replicate 2":2.04e7,"call":"inactive"}

Ordered by “calcium entry signal, replicate 2” (lowest first): 3 of the entries above.
{"gene":"CG33964 + CG13175","DRSC id":"DRSC07184","calcium entry signal, replicate 1":2.19e7,"calcium entry signal, replicate 2":3.03e7,"resting calcium signal, replicate 1":1.12e7,"resting calcium signal, replicate 2":1.37e7,"call":"inactive"}
{"gene":"CG33964 + CG13175","DRSC id":"DRSC06301","calcium entry signal, replicate 1":2.29e7,"calcium entry signal, replicate 2":3.12e7,"resting calcium signal, replicate 1":1.28e7,"resting calcium signal, replicate 2":1.38e7,"call":"inactive"}
{"gene":"sl","DRSC id":"DRSC20377","calcium entry signal, replicate 1":4.20e7,"calcium entry signal, replicate 2":4.21e7,"resting calcium signal, replicate 1":1.74e7,"resting calcium signal, replicate 2":2.17e7,"call":"inactive"}
